# Literature values, collected in patent publication US20090062400A1 (priority 2007, published 2009).
# At least one structure is not confirmed: it was looked up by name or label, or the drawing left a doubt.
# Settings: retinal degeneration slow mouse; cited from earlier work
smiles,measurement,value
CC(=O)Oc1ccccc1C(=O)O [acetylsalicylate],effect on retinal degeneration,unsuccessful
